Laboratory results reported in the supplement of paper PMC12282887.
± gives the standard deviation of the averaged measurements. These are raw signals, not scaled to a control.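 The top concentration was set near the MIC for antimicrobials, at 500 µM for most other compounds, and up to 1 mM for known inducer-like compounds. Deletion strains started from a tenfold smaller inoculum, and wells growing below 10% of the overall median were treated as non-growing.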

Tested on: Escherichia coli BW25113
Assay: growth (OD600 area under curve, 8 h) (OD600 x h); higher = more growth
Experimental: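 E. coli BW25113 reporter strains (wild type, ΔmarA, ΔsoxS, Δrob, each carrying one of 8 lux reporter plasmids) were grown in 40 µl LB in 384-well plates at 37°C, 800 rpm, with each compound at 4 two-fold concentrations, in biological duplicates. Growth is the baseline-corrected OD600 area under the curve over 8 h (0-8 h WT, 1-9 h deletion strains).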

O=C(O)CN(CCN(CC(=O)O)CC(=O)O)CC(=O)O [EDTA]
growth
Conditions	reporter plasmid: EVC	reporter plasmid: acrABp	reporter plasmid: marRABp	reporter plasmid: micFp	reporter plasmid: ompFp	reporter plasmid: robp	reporter plasmid: soxSp	reporter plasmid: tolCp
18.3 µg/ml, genetic background: wild type	2.98 ± 0.12	2.63 ± 0.49	3.34 ± 0.13	3.23 ± 0.17	3.03 ± 0.23	3.23 ± 0.16	3.048 ± 0.03	3.01 ± 0.056
18.3 µg/ml, genetic background: ΔmarA	3.04 ± 0.3	4.38 ± 0.24	3.65 ± 0.037	3.27 ± 0.68	3.51 ± 0.56	3.82 ± 0.43	2.9 ± 0.41	3 ± 0.26
18.3 µg/ml, genetic background: Δrob	2.66 ± 0.9	3.318 ± 0.02	3.4407 ± 0.0015	3.15 ± 0.31	2.56 ± 0.092	2.82 ± 0.19	3.08 ± 0.2	3.11 ± 0.25
18.3 µg/ml, genetic background: ΔsoxS	2.91 ± 0.15	3.33 ± 0.66	3.27 ± 0.98	2.43 ± 0.48	3.26 ± 0.52	3.12 ± 0.2	3.11 ± 0.49	2.97 ± 0.26
36.5 µg/ml, genetic background: wild type	2.86 ± 0.045	2.64 ± 0.042	3.07 ± 0.15	3.01 ± 0.12	2.87 ± 0.045	2.973 ± 0.014	2.88 ± 0.02	2.83 ± 0.2
36.5 µg/ml, genetic background: ΔmarA	2.74 ± 0.41	3.93 ± 0.19	3.38 ± 0.18	3.13 ± 0.91	3.36 ± 0.98	3.57 ± 0.48	2.77 ± 0.58	2.77 ± 0.28
36.5 µg/ml, genetic background: Δrob	2.54 ± 0.83	3.54 ± 0.049	3.28 ± 0.033	2.95 ± 0.13	2.37 ± 0.41	2.7 ± 0.037	2.89 ± 0.63	3.05 ± 0.21
36.5 µg/ml, genetic background: ΔsoxS	2.81 ± 0.045	3.05 ± 0.52	3.14 ± 0.78	2.36 ± 0.29	2.81 ± 0.03	3.11 ± 0.33	2.9 ± 0.18	2.93 ± 0.23
73.1 µg/ml, genetic background: wild type	2.64 ± 0.04	1.91 ± 0.13	2.82 ± 0.29	2.72 ± 0.079	2.74 ± 0.12	2.72 ± 0.32	2.55 ± 0.24	2.6 ± 0.21
73.1 µg/ml, genetic background: ΔmarA	2.69 ± 0.41	3.52 ± 0.25	3.52 ± 0.19	3.01 ± 0.92	3.28 ± 0.95	3.45 ± 0.6	2.54 ± 0.74	2.49 ± 0.083
73.1 µg/ml, genetic background: Δrob	2.47 ± 0.55	2.97 ± 0.2	3.17 ± 0.047	2.57 ± 0.33	2.3 ± 0.58	2.48 ± 0.21	2.657 ± 0.025	2.96 ± 0.071
73.1 µg/ml, genetic background: ΔsoxS	2.98 ± 0.13	3 ± 0.45	3.14 ± 1	2.31 ± 0.45	2.67 ± 0.4	2.84 ± 0.26	2.83 ± 0.18	2.45 ± 0.36
146.1 µg/ml, genetic background: wild type	1.74 ± 0.024	1.366 ± 0.01	1.69 ± 0.26	1.3 ± 0.028	1.196 ± 0.004	1.74 ± 0.1	1.34 ± 0.014	1.98 ± 0.11
146.1 µg/ml, genetic background: ΔmarA	1.64 ± 0.39	1.65 ± 0.88	0.844 ± 0.32	1.68 ± 1.1	0.687 ± 0.08	2.37 ± 0.72	0.682 ± 0.018	1.12 ± 0.63
146.1 µg/ml, genetic background: Δrob	1.6 ± 0.28	0.872 ± 0.63	0.68 ± 0.13	1.06 ± 0.18	0.724 ± 0.23	0.107 ± 0.04	0.569 ± 0.18	1.73 ± 0.23
146.1 µg/ml, genetic background: ΔsoxS	0.665 ± 0.99	-0.0435 ± 0.043	0.0054 ± 0.11	-0.0412 ± 0.018	-0.0215 ± 0.052	-0.076 ± 0.062	-0.033 ± 0.038	0.702 ± 1.1

C[C@H](CCC(=O)O)[C@H]1CC[C@H]2[C@@H]3CC[C@@H]4C[C@H](O)CC[C@]4(C)[C@H]3CC[C@]12C [Lithocholic acid]
growth
Conditions	reporter plasmid: EVC	reporter plasmid: acrABp	reporter plasmid: marRABp	reporter plasmid: micFp	reporter plasmid: ompFp	reporter plasmid: robp	reporter plasmid: soxSp	reporter plasmid: tolCp
23.5 µg/ml, genetic background: wild type	2.79 ± 0.1	2.68 ± 0.13	2.97 ± 0.092	3.31 ± 0.17	2.96 ± 0.28	2.73 ± 0.029	2.58 ± 0.27	2.74 ± 0.036
23.5 µg/ml, genetic background: ΔmarA	3.1 ± 0.53	3.67 ± 0.35	3.09 ± 0.25	3.26 ± 0.64	2.89 ± 0.62	3.55 ± 0.29	3.06 ± 0.49	2.91 ± 0.36
23.5 µg/ml, genetic background: Δrob	3.08 ± 0.55	2.78 ± 0.046	3.04 ± 0.36	2.94 ± 0.24	2.67 ± 0.52	2.6136 ± 0.00026	3.03 ± 0.28	3.43 ± 0.19
23.5 µg/ml, genetic background: ΔsoxS	3.31 ± 0.04	3.82 ± 0.25	3.66 ± 1.3	2.85 ± 0.33	2.8855 ± 0.00016	3.25 ± 0.35	3.31 ± 0.17	3.25 ± 0.48
47.1 µg/ml, genetic background: wild type	2.48 ± 0.22	2.53 ± 0.11	2.76 ± 0.25	2.79 ± 0.56	2.81 ± 0.14	2.83 ± 0.15	2.62 ± 0.048	2.556 ± 0.011
47.1 µg/ml, genetic background: ΔmarA	3.13 ± 0.28	3.34 ± 0.084	3.07 ± 0.21	2.88 ± 0.3	2.97 ± 1.1	3.28 ± 0.74	3.07 ± 0.77	2.8 ± 0.35
47.1 µg/ml, genetic background: Δrob	2.79 ± 0.52	2.65 ± 0.084	2.84 ± 0.049	3.04 ± 0.49	2.21 ± 0.44	2.49 ± 0.075	2.76 ± 0.16	3.06 ± 0.24
47.1 µg/ml, genetic background: ΔsoxS	3.17 ± 0.061	3.71 ± 0.076	2.75 ± 0.27	2.74 ± 0.099	2.74 ± 0.1	2.89 ± 0.24	3.41 ± 0.12	3.23 ± 0.55
94.1 µg/ml, genetic background: wild type	2.49 ± 0.035	2.16 ± 0.33	2.63 ± 0.068	2.58 ± 0.034	2.93 ± 0.071	2.78 ± 0.028	2.28 ± 0.086	2.58 ± 0.086
94.1 µg/ml, genetic background: ΔmarA	3 ± 0.093	3.84 ± 0.18	3.5 ± 0.14	2.82 ± 0.041	2.91 ± 0.49	3.52 ± 0.38	2.88 ± 0.54	2.96 ± 0.24
94.1 µg/ml, genetic background: Δrob	2.69 ± 0.22	3.19 ± 0.57	3.17 ± 0.24	2.98 ± 0.14	2.62 ± 0.71	2.91 ± 0.22	2.93 ± 0.18	3.27 ± 0.044
94.1 µg/ml, genetic background: ΔsoxS	3.63 ± 0.18	3.47 ± 0.27	3.16 ± 0.55	3.44 ± 0.26	3.48 ± 0.24	3.38 ± 0.49	3.26 ± 0.17	3.61 ± 0.25
188.3 µg/ml, genetic background: wild type	2.54 ± 0.048	2.4641 ± 0.0002	2.7 ± 0.21	2.71 ± 0.35	2.49 ± 0.028	2.91 ± 0.45	2.56 ± 0.31	2.44 ± 0.087
188.3 µg/ml, genetic background: ΔmarA	2.91 ± 0.056	3.86 ± 0.37	3.42 ± 0.05	2.82 ± 0.33	3.41 ± 0.57	3.58 ± 0.07	2.96 ± 0.4	2.93 ± 0.2
188.3 µg/ml, genetic background: Δrob	2.68 ± 0.57	2.8 ± 0.21	2.83 ± 0.28	2.95 ± 0.11	2.71 ± 0.21	2.87 ± 0.41	2.74 ± 0.3	2.74 ± 0.065
188.3 µg/ml, genetic background: ΔsoxS	3.48 ± 0.16	3.25 ± 0.36	2.88 ± 0.1	3.1 ± 0.18	2.88 ± 0.066	3.09 ± 0.046	3.01 ± 0.28	3.39 ± 0.16

CO[C@H]1/C=C/O[C@@]2(C)Oc3c(C)c(O)c4c(O)c(c(/C=N/N5CCN(C)CC5)c(O)c4c3C2=O)NC(=O)/C(C)=C\C=C\[C@H](C)[C@H](O)[C@@H](C)[C@@H](O)[C@@H](C)[C@H](OC(C)=O)[C@@H]1C [Rifampicin]
growth
Conditions	reporter plasmid: EVC	reporter plasmid: acrABp	reporter plasmid: marRABp	reporter plasmid: micFp	reporter plasmid: ompFp	reporter plasmid: robp	reporter plasmid: soxSp	reporter plasmid: tolCp
1 µg/ml, genetic background: wild type	3.19 ± 0.041	2.98 ± 0.22	3.27 ± 0.042	3.15 ± 0.2	3.2 ± 0.12	3.26 ± 0.041	3.04 ± 0.076	3.16 ± 0.23
1 µg/ml, genetic background: ΔmarA	3.24 ± 0.28	4.18 ± 0.32	3.7 ± 0.36	3.21 ± 0.77	3.55 ± 0.69	3.92 ± 0.35	2.85 ± 0.39	2.93 ± 0.18
1 µg/ml, genetic background: Δrob	3.04 ± 0.35	2.78 ± 0.12	3.26 ± 0.37	2.95 ± 0.11	2.77 ± 0.48	2.64 ± 0.18	2.99 ± 0.095	3.08 ± 0.23
1 µg/ml, genetic background: ΔsoxS	3.29 ± 0.078	3.22 ± 0.24	3.07 ± 0.62	3.105 ± 0.016	3.16 ± 0.29	3.14 ± 0.16	3.28 ± 0.16	3.3 ± 0.24
2.1 µg/ml, genetic background: wild type	3.17 ± 0.23	2.53 ± 0.18	2.772 ± 0.027	2.98 ± 0.14	2.757 ± 0.017	2.754 ± 0.018	2.96 ± 0.15	3.07 ± 0.37
2.1 µg/ml, genetic background: ΔmarA	2.844 ± 0.024	3.8 ± 0.33	3.53 ± 0.42	3.07 ± 0.65	3.13 ± 0.68	3.4 ± 0.45	2.78 ± 0.36	2.566 ± 0.005
2.1 µg/ml, genetic background: Δrob	3.11 ± 0.25	2.32 ± 0.17	2.78 ± 0.67	2.93 ± 0.22	2.3 ± 0.41	2.15 ± 0.22	2.81 ± 0.33	2.93 ± 0.26
2.1 µg/ml, genetic background: ΔsoxS	3.27 ± 0.18	2.91 ± 0.45	2.76 ± 0.41	3.15 ± 0.051	3.143 ± 0.028	2.79 ± 0.04	3.106 ± 0.028	3.281 ± 0.028
4.1 µg/ml, genetic background: wild type	2.66 ± 0.089	2.07 ± 0.28	2.37 ± 0.039	2.74 ± 0.043	2.5 ± 0.058	2.337 ± 0.0091	2.78 ± 0.16	2.82 ± 0.39
4.1 µg/ml, genetic background: ΔmarA	2.56 ± 0.26	3.24 ± 0.5	2.79 ± 0.29	2.28 ± 0.77	2.5 ± 0.48	2.92 ± 0.43	2.37 ± 0.28	2.15 ± 0.27
4.1 µg/ml, genetic background: Δrob	2.65 ± 0.23	2.19 ± 0.097	2.54 ± 0.41	2.24 ± 0.54	1.36 ± 0.14	0.981 ± 0.26	2.4 ± 0.17	2.63 ± 0.034
4.1 µg/ml, genetic background: ΔsoxS	2.76 ± 0.23	2.4 ± 0.024	2.41 ± 0.42	2.62 ± 0.046	2.86 ± 0.034	2.2 ± 0.34	2.77 ± 0.049	2.86 ± 0.048
8.2 µg/ml, genetic background: wild type	0.729 ± 0.13	0.143 ± 0.1	0.261 ± 0.041	0.602 ± 0.008	0.164 ± 0.11	0.254 ± 0.0089	0.892 ± 0.41	0.816 ± 0.42
8.2 µg/ml, genetic background: ΔmarA	0.0355 ± 0.074	-0.0201 ± 0.098	0.00915 ± 0.034	0.0661 ± 0.081	-0.0435 ± 0.019	-0.0116 ± 0.024	0.0126 ± 0.0045	0.0211 ± 0.054
8.2 µg/ml, genetic background: Δrob	0.0297 ± 0.14	-0.12 ± 0.16	0.02 ± 0.013	0.0142 ± 0.015	-0.0564 ± 0.05	0.00141 ± 0.042	0.141 ± 0.02	0.268 ± 0.13
8.2 µg/ml, genetic background: ΔsoxS	0.246 ± 0.17	0.00943 ± 0.018	-0.0279 ± 0.11	0.0577 ± 0.018	0.0223 ± 0.048	-0.00222 ± 0.049	0.0544 ± 0.13	0.251 ± 0.14
